Patent US20110160123A1, “TARGETING THE EFFLUX SYSTEMS OF MYCOBACTERIUM TUBERCULOSIS” (THE UAB RESEARCH FOUNDATION, priority 2008, published 2011)
At least one structure is not confirmed: it was looked up by name or label, or the drawing left a doubt.

System: M. smegmatis SMR5 wt (pMS2) and rv0194-expressing strain (pML655)
Format: cell-based

SMILES: CC[n+]1c(-c2ccccc2)c2cc(N)ccc2c2ccc(N)cc21 [ethidium bromide]
- growth in the presence of ethidium bromide: drastically reduced the growth
